Data from paper PMC10611586, “Molecular basis for ubiquitin/Fubi cross-reactivity in USP16 and USP36” (Nature Chemical Biology, 2023).

Assays:
[1] = molecular target: T1, USP36^81–461 (catalytic domain, longer construct) (human, UniProt Q9P275 81-461); test: activity-based probe labelling (covalent conjugate), SDS-PAGE; purified protease 2.5 µM and probe 10 µM, 1 h at 37 °C; 20 mM Tris pH 8.0, 300 mM NaCl, 2 mM DTT, 5% glycerol; SDS-PAGE and Coomassie staining; conditions: both partners purified
T1 construct: also called recombinant USP36; source: E. coli Rosetta2(DE3)pLacI, purified (HisTrap, 3C cleavage, cation exchange)
T1 sequence (looked up): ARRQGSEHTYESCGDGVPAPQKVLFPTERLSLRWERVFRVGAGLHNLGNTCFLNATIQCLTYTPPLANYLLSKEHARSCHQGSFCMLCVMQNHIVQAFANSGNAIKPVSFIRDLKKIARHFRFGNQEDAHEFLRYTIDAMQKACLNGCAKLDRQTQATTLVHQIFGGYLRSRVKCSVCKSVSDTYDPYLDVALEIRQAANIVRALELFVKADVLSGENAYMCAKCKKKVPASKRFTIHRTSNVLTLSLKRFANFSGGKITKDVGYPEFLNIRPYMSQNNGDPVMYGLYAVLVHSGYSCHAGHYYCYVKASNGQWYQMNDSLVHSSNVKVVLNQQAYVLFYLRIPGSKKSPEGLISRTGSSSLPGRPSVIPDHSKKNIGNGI

[2] = molecular target: T2, USP16^191–823 (catalytic domain) (human, UniProt Q9Y5T5 191-823); test: as above; conditions: both partners purified
T2 construct: USP16, human, catalytic domain, residues 191-823; also called recombinant USP16; source: E. coli Rosetta2(DE3)pLacI, purified (HisTrap, 3C cleavage, reverse Ni-NTA, anion exchange, SEC)
T2 sequence (looked up): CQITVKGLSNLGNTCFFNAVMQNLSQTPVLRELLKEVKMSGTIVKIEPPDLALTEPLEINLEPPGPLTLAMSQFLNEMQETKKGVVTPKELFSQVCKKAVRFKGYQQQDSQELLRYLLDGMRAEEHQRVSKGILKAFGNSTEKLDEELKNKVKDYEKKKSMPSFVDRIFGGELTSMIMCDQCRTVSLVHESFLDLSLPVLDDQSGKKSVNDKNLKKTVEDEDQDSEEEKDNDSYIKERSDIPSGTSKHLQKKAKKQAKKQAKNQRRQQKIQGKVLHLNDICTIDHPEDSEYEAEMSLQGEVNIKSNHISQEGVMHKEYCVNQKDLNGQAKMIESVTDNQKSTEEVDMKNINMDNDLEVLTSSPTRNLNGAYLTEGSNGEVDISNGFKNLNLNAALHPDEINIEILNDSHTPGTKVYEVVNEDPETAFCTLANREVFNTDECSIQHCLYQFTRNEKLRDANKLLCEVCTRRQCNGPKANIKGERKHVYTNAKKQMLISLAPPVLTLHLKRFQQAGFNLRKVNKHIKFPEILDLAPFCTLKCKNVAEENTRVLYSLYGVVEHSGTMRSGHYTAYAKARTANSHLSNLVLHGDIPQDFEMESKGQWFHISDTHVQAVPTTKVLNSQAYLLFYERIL

B1: Fubi-PA V40R P47Q (other, human, UniProt P62861 1-73, looked up)
chain: MQLFVRAQELHTFEVTGQETVAQIKAHVASLEGIAPEDQRVLLAGAQLEDEATLGQCGVEALTTLEVAGRMLG
modifications: C-terminal propargylamine (PA) warhead
notes: Fubi, human, residues 1-73; also called probe that restores the more polar Ile 44 environment (V40R and P47Q); source: E. coli Rosetta2(DE3)pLacI, intein fusion, MesNa thioester, reacted with propargylamine, purified
binding result [1]: binds
binding result [2]: binds
